Test results as given in PMC12418378.

Sequences of proteins named here, by UniProt entry; tags and fusion partners are left off. Residues count along the entry.
UniProt O60016, whole entry: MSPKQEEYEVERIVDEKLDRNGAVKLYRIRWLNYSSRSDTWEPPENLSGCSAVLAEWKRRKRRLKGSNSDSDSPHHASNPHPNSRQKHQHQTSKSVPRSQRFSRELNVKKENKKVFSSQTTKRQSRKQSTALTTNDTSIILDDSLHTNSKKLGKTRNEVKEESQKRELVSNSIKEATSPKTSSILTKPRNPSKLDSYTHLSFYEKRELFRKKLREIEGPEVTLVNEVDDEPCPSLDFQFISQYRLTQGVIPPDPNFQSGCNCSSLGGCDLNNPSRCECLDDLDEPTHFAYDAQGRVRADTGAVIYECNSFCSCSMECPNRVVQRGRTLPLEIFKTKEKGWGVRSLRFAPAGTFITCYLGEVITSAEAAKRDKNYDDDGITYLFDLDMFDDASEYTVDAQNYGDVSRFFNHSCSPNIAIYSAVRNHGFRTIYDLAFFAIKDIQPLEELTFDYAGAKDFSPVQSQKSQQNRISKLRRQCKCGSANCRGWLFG
UniProt O60016, 1-62: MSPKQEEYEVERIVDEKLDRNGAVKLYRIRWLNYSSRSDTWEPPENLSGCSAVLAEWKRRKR
UniProt O60016, 127-191: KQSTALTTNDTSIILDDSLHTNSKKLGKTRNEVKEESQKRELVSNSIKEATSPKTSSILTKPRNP
UniProt O60016, 192-490: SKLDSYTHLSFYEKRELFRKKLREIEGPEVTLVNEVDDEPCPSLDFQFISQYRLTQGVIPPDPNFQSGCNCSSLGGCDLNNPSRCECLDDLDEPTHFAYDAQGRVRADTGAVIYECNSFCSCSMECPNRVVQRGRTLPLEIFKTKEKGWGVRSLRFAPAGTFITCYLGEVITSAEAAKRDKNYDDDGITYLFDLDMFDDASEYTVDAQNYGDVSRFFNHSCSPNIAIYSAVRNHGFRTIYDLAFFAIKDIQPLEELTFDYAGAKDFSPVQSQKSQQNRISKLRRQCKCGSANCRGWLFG

Legend:
Test in all cases: EMSA
[1] = target: Clr4 full-length WT (Schizosaccharomyces pombe) (UniProt O60016); details: EMSA: 20 mM Tris-HCl pH 7.5, 1 mM DTT, 0.1 mg/ml BSA; RNA on ice 30 min; DNA and nucleosomes 37 C 15 min; 5% native PAGE, 0.5x TBE; recombinant protein; residues 1-490; protein details: His-SUMO removed by Ulp1 (pCold-SUMO-TEV); label: none (SYBR Gold stain); probe letters rebuilt from the primers and the …
[2] = target: GST-Clr4-CD (N1) (Schizosaccharomyces pombe) (UniProt O60016); details: EMSA: 20 mM Tris-HCl pH 7.5, 1 mM DTT, 0.1 mg/ml BSA; RNA on ice 30 min; DNA and nucleosomes 37 C 15 min; 5% native PAGE, 0.5x TBE; recombinant protein; residues 1-62; protein details: GST; label: none (SYBR Gold stain); probe letters rebuilt from the primers and the genome
[3] = target: GST-Clr4-N8 (Schizosaccharomyces pombe) (UniProt O60016); details: EMSA: 20 mM Tris-HCl pH 7.5, 1 mM DTT, 0.1 mg/ml BSA; RNA on ice 30 min; DNA and nucleosomes 37 C 15 min; 5% native PAGE, 0.5x TBE; recombinant protein; residues 127-191; protein details: GST; label: none (SYBR Gold stain); probe letters rebuilt from the primers and the genome
[4] = target: GST-Clr4-C (C1) (Schizosaccharomyces pombe) (UniProt O60016); details: EMSA: 20 mM Tris-HCl pH 7.5, 1 mM DTT, 0.1 mg/ml BSA; RNA on ice 30 min; DNA and nucleosomes 37 C 15 min; 5% native PAGE, 0.5x TBE; recombinant protein; residues 192-490; protein details: GST; label: none (SYBR Gold stain); probe letters rebuilt from the primers and the genome

Sequence	binding result [1]	binding result [2]	binding result [3]	binding result [4]
GGGUACCUUUGGGACGUGGUCUCUUGCUUUUGGCUGAAAUGUCUUCCAAAGGCUCUUUGGCUACUGGUUCCUACACAGAGAAAACCUUAGAAUGGUUUGAGAAGCAUACCGAUUUUUGCUUUGGCUUUAUAGCUGGUCGUCGAUUUCCUAACCUUCAAAGCGACUACAUAACUAUGUCCCCUGGUAUCGGCUUGGAUGUUAAAGGAGACGGGCUGGGACAGCAAUAUCGUACUCCUGAAGAAGUGAUUGUAAACUGCGGUAGCGAUAUCAUCAUUGUUGGUCGUGGAGUCUAUGGAGCUGGUCG [ura4+ RNA, 304 nt]	binds	–	–	–
GGGAGCCUCAAGUGACUGCAUUAAAGCAUAAUACCGAAGCACUGACAUAACAGAGAGGUUCAGAAAGGAAUUUAAAGAUUGACUUUUUCGACAAACUUCAUGUUACAAGUCUUAUCGUUUGUGUUUAUAAAUCAUCAGCCUCUCUCUAUAUCUCUAUAUCUCUAUAUAUCAGAUAUAAAGAUGCAAGUUUUGAAGUAGACAUUCCGCACAAAGUCUAGUACACCAUGUCUCUUGUGCUCAGGCUGGUUGUCCUGCAAAAAUGUACAACAGGCAAAUGGAUGUUUCAUCAAAGAUGGACUCCUUUGUCUCAUACUUAUUGAUGGCGAAGCUAGAUCCGUUAUCAUCUUGAGAAAACACAUCGUUGUCUUCAGAGUAGCCC [pericentromeric repeat RNA, 379 nt]	binds	no binding	no binding	no binding

For some assays here: No signal at the amounts used counts as a negative.
